# Paper PMC12544700, “Identification of a Small Secretoneurin Derivative That Inhibits CaMKIIδ Activity” (Journal of Cellular and Molecular Medicine, 2025)
# These are yes or no findings as the source states them, for the method shown. Some entries that bind do so weakly or less than the wild type.
# Biological target: recombinant rat His‐CaMKIIδ‐T287D full‐length protein (rat) (UniProt P15791)
# Test: ELISA; competition: rat CaMKIIδ‐T287D coated; 5 μL (1 mM) biotinylated SN‐db‐short together with 20 μL (1 mM) untagged competitor peptide in the same well; both purified
row,binding,Binder
1,binds,KRPPKLGQIGRAKRVVIEDDRIDDVLK [CN27 peptide]
2,binds,KRPPKLGQIGRSKRVVIEDDR [CN21 peptide]

# Biological target: recombinant His‐CaMKIIδ‐T287D (species not named for the experiment) (not stated (rat or human protein made)) (UniProt P15791)
# Test: ELISA; His‐CaMKIIδ‐T287D or CaMKIIδ fragment coated, 1 μg/well in PBS overnight at 4°C; blocked with gelatin or BSA; 5 μL of 1 mM biotinylated peptide, 2 h at 37°C; anti‐biotin‐HRP, read at 450 nm; both purified
row,binding,Binder
1,binds,TNEIVEEQYTPQSLATLESV (biotin-ahx on the N-terminus) [biotinylated SN (1–20)]
2,binds,EQYTPQSLATLESVFQELGK (biotin-ahx on the N-terminus) [biotinylated SN (7–26)]
3,binds,LATLESVFQELGKLTGPNNQ (biotin-ahx on the N-terminus) [biotinylated SN (14–33)]
4,binds,"TNEIVEEQYTPQSLATLESVFQELGKLTGPNNQ (biotin-ahx on the N-terminus) [biotinylated secretoneurin (SN), SN (1–33)]"
